# No constants are given. Whether binding was seen depends on the method and setting. Binding seen in cells or lysates may run through a third protein. Here binding means that the protein was enriched with, or labelled near, the bait; the list need not be complete.
# Amino acid sequences for entries named in this document (tags omitted).
# UniProt Q96GC6: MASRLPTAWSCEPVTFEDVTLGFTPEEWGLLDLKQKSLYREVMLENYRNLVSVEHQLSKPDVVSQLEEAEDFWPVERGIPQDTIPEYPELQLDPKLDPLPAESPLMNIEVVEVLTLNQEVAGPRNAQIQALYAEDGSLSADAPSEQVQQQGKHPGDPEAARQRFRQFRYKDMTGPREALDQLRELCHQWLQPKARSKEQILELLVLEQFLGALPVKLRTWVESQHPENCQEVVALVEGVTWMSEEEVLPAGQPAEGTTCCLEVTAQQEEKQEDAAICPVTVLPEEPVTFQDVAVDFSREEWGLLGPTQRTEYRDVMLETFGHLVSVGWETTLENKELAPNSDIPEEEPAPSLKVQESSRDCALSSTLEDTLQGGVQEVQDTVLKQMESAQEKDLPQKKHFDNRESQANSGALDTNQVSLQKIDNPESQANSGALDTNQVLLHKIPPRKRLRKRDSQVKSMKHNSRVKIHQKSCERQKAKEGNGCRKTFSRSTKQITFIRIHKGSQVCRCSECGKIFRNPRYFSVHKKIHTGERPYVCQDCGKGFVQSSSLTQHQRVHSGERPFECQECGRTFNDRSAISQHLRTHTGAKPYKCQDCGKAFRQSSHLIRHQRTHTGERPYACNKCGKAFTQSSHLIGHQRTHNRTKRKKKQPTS
# UniProt P17028: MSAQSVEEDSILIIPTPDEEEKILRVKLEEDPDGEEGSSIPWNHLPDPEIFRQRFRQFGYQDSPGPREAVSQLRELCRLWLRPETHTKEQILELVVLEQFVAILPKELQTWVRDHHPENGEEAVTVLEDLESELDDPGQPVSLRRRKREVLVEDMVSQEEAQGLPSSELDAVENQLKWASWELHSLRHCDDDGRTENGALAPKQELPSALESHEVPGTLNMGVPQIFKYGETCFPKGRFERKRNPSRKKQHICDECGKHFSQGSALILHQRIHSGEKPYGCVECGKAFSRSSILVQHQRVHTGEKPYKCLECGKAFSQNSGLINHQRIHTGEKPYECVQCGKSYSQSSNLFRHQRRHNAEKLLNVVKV
# UniProt Q9UPN9: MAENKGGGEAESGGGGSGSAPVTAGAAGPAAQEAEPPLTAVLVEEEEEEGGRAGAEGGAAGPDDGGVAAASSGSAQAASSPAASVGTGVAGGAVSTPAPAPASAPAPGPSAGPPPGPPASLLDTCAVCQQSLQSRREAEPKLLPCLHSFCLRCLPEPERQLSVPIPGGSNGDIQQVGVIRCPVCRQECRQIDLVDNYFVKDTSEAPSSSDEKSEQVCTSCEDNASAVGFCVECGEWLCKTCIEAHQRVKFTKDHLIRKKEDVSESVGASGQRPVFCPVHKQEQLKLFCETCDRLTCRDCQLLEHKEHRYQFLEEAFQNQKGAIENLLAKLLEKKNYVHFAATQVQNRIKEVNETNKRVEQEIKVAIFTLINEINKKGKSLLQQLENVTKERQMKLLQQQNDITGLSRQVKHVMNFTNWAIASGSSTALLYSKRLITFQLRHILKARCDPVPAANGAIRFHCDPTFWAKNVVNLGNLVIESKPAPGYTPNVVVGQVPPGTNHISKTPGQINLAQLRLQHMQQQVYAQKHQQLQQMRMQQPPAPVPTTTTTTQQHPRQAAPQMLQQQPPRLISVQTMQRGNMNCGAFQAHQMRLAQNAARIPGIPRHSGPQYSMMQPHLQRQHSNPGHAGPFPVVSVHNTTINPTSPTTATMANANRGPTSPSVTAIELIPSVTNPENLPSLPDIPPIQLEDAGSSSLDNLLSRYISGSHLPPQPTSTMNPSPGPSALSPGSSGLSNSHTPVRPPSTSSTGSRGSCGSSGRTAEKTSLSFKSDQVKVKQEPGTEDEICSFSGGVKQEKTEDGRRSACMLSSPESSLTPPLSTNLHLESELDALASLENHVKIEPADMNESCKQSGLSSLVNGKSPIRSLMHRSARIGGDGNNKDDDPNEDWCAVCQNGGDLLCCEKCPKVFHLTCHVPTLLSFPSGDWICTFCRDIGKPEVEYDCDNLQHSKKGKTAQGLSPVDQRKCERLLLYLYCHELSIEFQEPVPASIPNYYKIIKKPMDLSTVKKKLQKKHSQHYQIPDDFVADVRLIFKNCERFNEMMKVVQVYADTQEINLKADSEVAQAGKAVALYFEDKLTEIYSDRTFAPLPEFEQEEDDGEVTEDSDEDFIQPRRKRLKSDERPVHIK
# UniProt Q13263: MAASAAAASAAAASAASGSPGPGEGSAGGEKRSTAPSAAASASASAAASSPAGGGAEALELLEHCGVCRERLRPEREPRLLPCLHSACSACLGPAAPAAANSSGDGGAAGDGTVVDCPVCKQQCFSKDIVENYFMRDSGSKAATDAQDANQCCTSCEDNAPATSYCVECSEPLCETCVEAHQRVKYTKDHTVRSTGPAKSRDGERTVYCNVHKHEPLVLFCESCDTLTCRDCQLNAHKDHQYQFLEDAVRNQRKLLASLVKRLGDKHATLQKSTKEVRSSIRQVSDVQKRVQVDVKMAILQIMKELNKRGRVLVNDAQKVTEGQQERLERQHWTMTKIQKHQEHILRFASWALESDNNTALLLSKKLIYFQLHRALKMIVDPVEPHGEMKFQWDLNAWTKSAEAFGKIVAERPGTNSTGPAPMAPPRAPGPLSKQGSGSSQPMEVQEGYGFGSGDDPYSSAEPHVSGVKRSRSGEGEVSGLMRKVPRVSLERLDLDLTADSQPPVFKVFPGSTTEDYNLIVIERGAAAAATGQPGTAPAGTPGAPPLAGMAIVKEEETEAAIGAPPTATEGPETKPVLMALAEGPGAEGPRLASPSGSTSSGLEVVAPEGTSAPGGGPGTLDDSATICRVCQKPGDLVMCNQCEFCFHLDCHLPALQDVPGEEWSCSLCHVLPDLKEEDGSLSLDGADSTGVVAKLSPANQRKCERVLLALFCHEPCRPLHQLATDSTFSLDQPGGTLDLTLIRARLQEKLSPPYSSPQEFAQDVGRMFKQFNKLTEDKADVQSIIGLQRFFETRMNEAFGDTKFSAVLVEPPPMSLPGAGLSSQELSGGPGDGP
# Biological target: ZNF274, full length, HA-tagged (ZNF274-HA); a Flag-tagged copy was coexpressed for the co-IP (human) (UniProt Q96GC6)
# Test: proximity labelling; ProtA-TurboID targeted with an anti-HA antibody to ZNF274-HA in fixed, permeabilized nuclei of doxycycline-induced HEK293T cells; biotinylation 10 min at 37°C; streptavidin enrichment and quantitative mass spectrometry; n = 3 replicates per condition
row,binding,Molecule
1,binds,ZNF24 (from UniProt P17028 1-368)
2,binds,TRIM33 (from UniProt Q9UPN9 1-1127)
3,binds,KAP1/TRIM28 (from UniProt Q13263 1-835)
4,binds,"TRIM24 (protein, UniProt O15164 1-1050) MEVAVEKAVAAAAAASAAASGGPSAAPSGENEAESRQGPDSERGGEAARLNLLDTCAVCHQNIQSRAPKLLPCLHSFCQRCLPAPQRYLMLPAPMLGSAETPPPVPAPGSPVSGSSPFATQVGVIRCPVCSQECAERHIIDNFFVKDTTEVPSSTVEKSNQVCTSCEDNAEANGFCVECVEWLCKTCIRAHQRVKFTKDHTVRQKEEVSPEAVGVTSQRPVFCPFHKKEQLKLYCETCDKLTCRDCQLLEHKEHRYQFIEEAFQNQKVIIDTLITKLMEKTKYIKFTGNQIQNRIIEVNQNQKQVEQDIKVAIFTLMVEINKKGKALLHQLESLAKDHRMKLMQQQQEVAGLSKQLEHVMHFSKWAVSSGSSTALLYSKRLITYRLRHLLRARCDASPVTNNTIQFHCDPSFWAQNIINLGSLVIEDKESQPQMPKQNPVVEQNSQPPSGLSSNQLSKFPTQISLAQLRLQHMQQQVMAQRQQVQRRPAPVGLPNPRMQGPIQQPSISHQQPPPRLINFQNHSPKPNGPVLPPHPQQLRYPPNQNIPRQAIKPNPLQMAFLAQQAIKQWQISSGQGTPSTTNSTSSTPSSPTITSAAGYDGKAFGSPMIDLSSPVGGSYNLPSLPDIDCSSTIMLDNIVRKDTNIDHGQPRPPSNRTVQSPNSSVPSPGLAGPVTMTSVHPPIRSPSASSVGSRGSSGSSSKPAGADSTHKVPVVMLEPIRIKQENSGPPENYDFPVVIVKQESDEESRPQNANYPRSILTSLLLNSSQSSTSEETVLRSDAPDSTGDQPGLHQDNSSNGKSEWLDPSQKSPLHVGETRKEDDPNEDWCAVCQNGGELLCCEKCPKVFHLSCHVPTLTNFPSGEWICTFCRDLSKPEVEYDCDAPSHNSEKKKTEGLVKLTPIDKRKCERLLLFLYCHEMSLAFQDPVPLTVPDYYKIIKNPMDLSTIKKRLQEDYSMYSKPEDFVADFRLIFQNCAEFNEPDSEVANAGIKLENYFEELLKNLYPEKRFPKPEFRNESEDNKFSDDSDDDFVQPRKKRLKSIEERQLLK"
